Assay results taken from patent publication US20230406833A1, “HERBICIDAL MALONAMIDES” (BASF SE, priority 2020, published 2023).
Some results were stated once for a whole list of compounds, not compound by compound.

Experiments:
Assay type in all cases: in vivo
Setaria faberi (SETFA) = experiment: greenhouse pre-emergence herbicidal test; details: 0.250 kg/ha
Source text: (§1) The culture containers used were plastic flowerpots containing loamy sand with approximately 3.0% of humus as the substrate. The seeds of the test plants were sown separately for each species.
(§2) For the pre-emergence treatment, the active ingredients, which had been suspended or emulsified in water, were applied directly after sowing by means of finely distributing nozzles. The containers were irrigated gently to promote germination and growth and subsequently covered with transparent plastic hoods until the test plants had rooted. This cover caused uniform germination of the test plants, unless this had been impaired by the active ingredients. For the post-emergence treatment, the test plants were first grown to a height of 3 to 15 cm, depending on the plant habit, and only then treated with the active ingredients which had been suspended or emulsified in water. For this purpose, the test plants were either shown directly and grown in the same containers, or they were first grown separately as seedlings and transplanted into the test containers a few days prior to treatment.
(§3) Depending on the species, the test plants were kept at 10-25° C. or 20-35° C., respectively. The test period extended over 2 to 4 weeks. During this time, the test plants were tended, and their response to the individual treatments was evaluated.
(§4) Evaluation was carried out using a scale from 0 to 100. 100 means no emergence of the test plants, or complete destruction of at least the aerial moieties, and 0 means no damage, or normal course of growth. A good herbicidal activity is given at values of 70 to <90 and a very good herbicidal activity is given at values of 90 to 100.
(§5) The test plants used in the greenhouse experiments were of the following species: […]

[1] = system: Apera spica-venti (APESV); experiment: greenhouse pre-emergence herbicidal test; details: 0.250 kg/ha, scale from 0 to 100
Source text: as §1, §2, §3, §4, §5

[2] = system: Amaranthus retroflexus (AMARE); experiment: greenhouse post-emergence herbicidal test; details: scale from 0 to 100
Source text: as §1, §2, §3, §4, §5

[3] = system: Echinocloa crus-galli (ECHCG); experiment: greenhouse post-emergence herbicidal test; details: scale from 0 to 100
Source text: as §1, §2, §3, §4, §5

Setaria viridis (SETVI) = experiment: greenhouse post-emergence herbicidal test; details: scale from 0 to 100
Source text: as §1, §2, §3, §4, §5

[4] = system: Echinocloa crus-galli (ECHCG); experiment: greenhouse pre-emergence herbicidal test; details: 0.250 kg/ha, scale from 0 to 100
Source text: as §1, §2, §3, §4, §5

Row | SMILES | herbicidal activity against SETFA (Setaria faberi (SETFA); scale from 0 to 100) | herbicidal activity against AMARE ([2]; 0.250 kg/ha) | also measured
1 | CC(C)OC(=O)C1C=CC(NC(=O)C2(C(=O)Nc3cccc(I)c3)C=CCO2)C1 (mixture of isomers) [I.55] | very good (a very good herbicidal activity is given at values of 90 to 100) | – | –
2 | COC(=O)C1CC(NC(=O)C2(C(=O)Nc3cc(Cl)cc(Cl)c3)CCCO2)C1 (stereo not drawn) [I.111] | good (A good herbicidal activity is given at values of 70 to <90) | very good (a very good herbicidal activity is given at values of 90 to 100) | herbicidal activity against APESV [1]: very good (a very good herbicidal activity is given at values of 90 to 100); herbicidal activity against ECHCG ([3]; 0.250 kg/ha): very good (a very good herbicidal activity is given at values of 90 to 100); herbicidal activity against SETVI (Setaria viridis (SETVI); 0.250 kg/ha): very good (a very good herbicidal activity is given at values of 90 to 100)
3 | COC(=O)CC(C)NC(=O)C1(C(=O)Nc2cc(F)cc(F)c2)C=CCO1 (mixture of isomers) [I.40] | good (A good herbicidal activity is given at values of 70 to <90) | – | –
4 | O=C(OCCSc1ccccc1)C1=CC[C@H](NC(=O)C2(C(=O)Nc3cc(Cl)cc(Cl)c3)C=CCO2)C1 (stereo partly drawn) [I.89] | – | very good (a very good herbicidal activity is given at values of 90 to 100) | herbicidal activity against SETFA (Setaria faberi (SETFA); scale from 0 to 100, listed as I89): good (A good herbicidal activity is given at values of 70 to <90)
5 | COC(=O)C1CCC(NC(=O)C2(C(=O)Nc3cc(F)cc(F)c3)C=CCO2)C1 (mixture of isomers) [I.39] | good (A good herbicidal activity is given at values of 70 to <90) | – | –
6 | COC(=O)CCCNC(=O)C1(C(=O)Nc2cc(Cl)cc(Cl)c2)CCO1 (racemic) [I.8] | – | – | herbicidal activity against AMARE ([2]; 0.500 kg/ha): very good (a very good herbicidal activity is given at values of 90 to 100); herbicidal activity against ECHCG ([3]; 0.500 kg/ha): very good (a very good herbicidal activity is given at values of 90 to 100); herbicidal activity against SETVI (Setaria viridis (SETVI); 0.500 kg/ha): very good (a very good herbicidal activity is given at values of 90 to 100)
7 | COC(=O)C1C=CC(NC(=O)C2(C(=O)Nc3cc(F)cc(F)c3)C=CCO2)C1 (mixture of isomers) [I.42] | very good (a very good herbicidal activity is given at values of 90 to 100) | – | –
8 | COC(=O)C1CCCC(NC(=O)C2(C(=O)Nc3cc(F)cc(F)c3)C=CCO2)CC1 (stereo not drawn) [I.97] | – | – | herbicidal activity against APESV [1]: very good (a very good herbicidal activity is given at values of 90 to 100)
9 | CC(C)OC(=O)[C@@H]1C=C[C@H](NC(=O)C2(C(=O)Nc3cc(F)cc(OC(F)(F)F)c3)C=CCO2)C1 (stereo partly drawn) [I.59] | good (A good herbicidal activity is given at values of 70 to <90) | – | –
10 | COC(=O)C1CCC(NC(=O)C2(C(=O)Nc3cc(Cl)cc(Cl)c3)C=CCO2)CC1 (stereo not drawn) [I.93] | – | good (A good herbicidal activity is given at values of 70 to <90) | herbicidal activity against APESV [1]: good (A good herbicidal activity is given at values of 70 to <90)
11 | C#CCOC(=O)CC(C)NC(=O)C1(C(=O)Nc2cc(F)cc(F)c2)CCO1 (stereo not drawn) [I.150] | – | very good (a very good herbicidal activity is given at values of 90 to 100) | herbicidal activity against APESV [1]: very good (a very good herbicidal activity is given at values of 90 to 100); herbicidal activity against ECHCG ([3]; 0.250 kg/ha): very good (a very good herbicidal activity is given at values of 90 to 100); herbicidal activity against SETVI (Setaria viridis (SETVI); 0.250 kg/ha): very good (a very good herbicidal activity is given at values of 90 to 100)
12 | COC(=O)[C@@H]1C=C[C@H](NC(=O)C2(C(=O)Nc3cc(Cl)cc(Cl)c3)C=CCO2)C1 (stereo partly drawn) [Compound I184, methyl (1S,4R)-4-[[5-[(3,5-dichlorophenyl)carbamoyl]-2H-furan-5-carbonyl]amino]cyclopent-2-ene-1-carboxylate] | – | very good (a very good herbicidal activity is given at values of 90 to 100) | herbicidal activity against ECHCG [4]: very good (a very good herbicidal activity is given at values of 90 to 100)
13 | O=C(O)C1C=CC(NC(=O)C2(C(=O)Nc3cc(Cl)cc(Cl)c3)C=CCO2)C1 (mixture of isomers) [I.53] | very good (a very good herbicidal activity is given at values of 90 to 100) | – | –
14 | COC(=O)C1CCCC(NC(=O)C2(C(=O)Nc3cc(Cl)cc(Cl)c3)C=CCO2)CC1 (stereo not drawn) [I.94] | – | good (A good herbicidal activity is given at values of 70 to <90) | –
15 | COC(=O)C1CC2(CC(NC(=O)C3(C(=O)Nc4cc(F)cc(F)c4)C=CCO3)C2)C1 (stereo not drawn) [I.98] | – | good (A good herbicidal activity is given at values of 70 to <90) | herbicidal activity against APESV [1]: very good (a very good herbicidal activity is given at values of 90 to 100)
16 | COC(=O)[C@@H]1C=C[C@H](NC(=O)C2(C(=O)Nc3cc(Cl)cc(Cl)c3)OC3C=CC2CC3)C1 (stereo partly drawn) [I.37] | very good (a very good herbicidal activity is given at values of 90 to 100) | – | –
17 | CC(C)OC(=O)C1C=CC(NC(=O)C2(C(=O)Nc3cc(F)cc(F)c3)C=CCO2)C1 (mixture of isomers) [I.38] | very good (a very good herbicidal activity is given at values of 90 to 100) | – | –
18 | CC(C)OC(=O)C1C=CC(NC(=O)C2(C(=O)Nc3cc(Cl)c(Cl)c(Cl)c3)C=CCO2)C1 (stereo not drawn) [I.56] | very good (a very good herbicidal activity is given at values of 90 to 100) | – | –
19 | CCc1cccc(NC(=O)C2(C(=O)NC3C=CC(C(=O)OC(C)C)C3)C=CCO2)c1 (mixture of isomers) [I.54] | very good (a very good herbicidal activity is given at values of 90 to 100) | – | –
20 | CCOC(=O)C1(C)COCC1NC(=O)C1(C(=O)Nc2cc(F)cc(F)c2)C=CCO1 (mixture of isomers) [I.52] | good (A good herbicidal activity is given at values of 70 to <90) | – | –
21 | COC(=O)[C@@H]1C=C[C@H](NC(=O)C2(C(=O)Nc3cc(Cl)cc(Cl)c3)CC(C)=NO2)C1 (stereo partly drawn) [I.178, methyl (1S,4R)-4-[[5-[(3,5-dichlorophenyl)carbamoyl]-3-methyl-4H-isoxazole-5-carbonyl]amino]cyclopent-2-ene-1-carboxylate] | – | – | herbicidal activity against ECHCG ([3]; 0.250 kg/ha): good (A good herbicidal activity is given at values of 70 to <90)
22 | CC(C)OC(=O)C1C=CC(NC(=O)C2(C(=O)Nc3cc(Cl)cc(Cl)c3)C=CCO2)C1 (mixture of isomers) [I.45] | very good (a very good herbicidal activity is given at values of 90 to 100) | – | –
23 | COC(=O)[C@@H]1C=C[C@H](NC(=O)C2(C(=O)Nc3cc(Cl)cc(Cl)c3)CCCN2C(=O)OC(C)(C)C)C1 (stereo partly drawn) [I.35, tert-butyl 2-[(3,5-dichlorophenyl)carbamoyl]-2-[[(1R,4S)-4-methoxycarbonylcyclopent-2-en-1-yl]carbamoyl]pyrrolidine-1-carboxylate] | very good (a very good herbicidal activity is given at values of 90 to 100) | – | –
24 | CC(C)OC(=O)[C@@H]1C=C[C@H](NC(=O)C2(C(=O)Nc3cc(Cl)cc(OC(F)(F)F)c3)C=CCO2)C1 (stereo partly drawn) [I.60] | very good (a very good herbicidal activity is given at values of 90 to 100) | – | –
25 | COC(=O)C1CC(NC(=O)C2(C(=O)Nc3cc(Cl)cc(Cl)c3)C=CCO2)C1 (racemic) [I.190] | – | good (A good herbicidal activity is given at values of 70 to <90) | herbicidal activity against ECHCG ([3]; 0.250 kg/ha): good (A good herbicidal activity is given at values of 70 to <90); herbicidal activity against SETVI (Setaria viridis (SETVI); 0.250 kg/ha): very good (a very good herbicidal activity is given at values of 90 to 100)
26 | CC(C)OC(=O)[C@@H]1C=C[C@H](NC(=O)C2(C(=O)Nc3cc(F)cc(Cl)c3)C=CCO2)C1 (stereo partly drawn) [I.61] | very good (a very good herbicidal activity is given at values of 90 to 100) | – | –
27 | COC(=O)[C@@H]1C=C[C@H](NC(=O)C2(C(=O)Nc3cc(Cl)cc(Cl)c3)OC(C)C=C2C)C1 (stereo partly drawn) [Compound I29, methyl (1S,4R)-4-[[5-[(3,5-dichlorophenyl)carbamoyl]-2,4-dimethyl-2H-furan-5-carbonyl]amino]cyclopent-2-ene-1-carboxylate] | good (A good herbicidal activity is given at values of 70 to <90) | – | –
28 | COC(=O)COCCNC(=O)C1(C(=O)Nc2cc(F)cc(F)c2)CCO1 (stereo not drawn) [I.146] | – | good (A good herbicidal activity is given at values of 70 to <90) | herbicidal activity against ECHCG ([3]; 0.250 kg/ha): very good (a very good herbicidal activity is given at values of 90 to 100); herbicidal activity against SETVI (Setaria viridis (SETVI); 0.250 kg/ha): very good (a very good herbicidal activity is given at values of 90 to 100)
29 | COC(=O)[C@@H]1C=C[C@H](NC(=O)C2(C(=O)Nc3cc(Cl)cc(Cl)c3)C=CCO2)C1 (stereo partly drawn) [Compound I24, methyl (1S,4R)-4-[[5-[(3,5-dichlorophenyl)carbamoyl]-2H-furan-5-carbonyl]amino]cyclopent-2-ene-1-carboxylate] | very good (a very good herbicidal activity is given at values of 90 to 100) | – | herbicidal activity against ECHCG ([3]; 0.250 kg/ha): very good (a very good herbicidal activity is given at values of 90 to 100); herbicidal activity against SETVI (Setaria viridis (SETVI); 0.250 kg/ha): very good (a very good herbicidal activity is given at values of 90 to 100)
